Assay results published in paper PMC11483127.
Like-named read-outs stand apart in the source and are kept apart here. These are yes or no findings as the source states them, for the method shown. In cells and extracts the contact can be indirect. These calls come from enrichment with a bait or labelling near it, and not all partners need be listed.

The chains behind the UniProt entries cited, without tags or fusion partners.
UniProt Q8IJW6: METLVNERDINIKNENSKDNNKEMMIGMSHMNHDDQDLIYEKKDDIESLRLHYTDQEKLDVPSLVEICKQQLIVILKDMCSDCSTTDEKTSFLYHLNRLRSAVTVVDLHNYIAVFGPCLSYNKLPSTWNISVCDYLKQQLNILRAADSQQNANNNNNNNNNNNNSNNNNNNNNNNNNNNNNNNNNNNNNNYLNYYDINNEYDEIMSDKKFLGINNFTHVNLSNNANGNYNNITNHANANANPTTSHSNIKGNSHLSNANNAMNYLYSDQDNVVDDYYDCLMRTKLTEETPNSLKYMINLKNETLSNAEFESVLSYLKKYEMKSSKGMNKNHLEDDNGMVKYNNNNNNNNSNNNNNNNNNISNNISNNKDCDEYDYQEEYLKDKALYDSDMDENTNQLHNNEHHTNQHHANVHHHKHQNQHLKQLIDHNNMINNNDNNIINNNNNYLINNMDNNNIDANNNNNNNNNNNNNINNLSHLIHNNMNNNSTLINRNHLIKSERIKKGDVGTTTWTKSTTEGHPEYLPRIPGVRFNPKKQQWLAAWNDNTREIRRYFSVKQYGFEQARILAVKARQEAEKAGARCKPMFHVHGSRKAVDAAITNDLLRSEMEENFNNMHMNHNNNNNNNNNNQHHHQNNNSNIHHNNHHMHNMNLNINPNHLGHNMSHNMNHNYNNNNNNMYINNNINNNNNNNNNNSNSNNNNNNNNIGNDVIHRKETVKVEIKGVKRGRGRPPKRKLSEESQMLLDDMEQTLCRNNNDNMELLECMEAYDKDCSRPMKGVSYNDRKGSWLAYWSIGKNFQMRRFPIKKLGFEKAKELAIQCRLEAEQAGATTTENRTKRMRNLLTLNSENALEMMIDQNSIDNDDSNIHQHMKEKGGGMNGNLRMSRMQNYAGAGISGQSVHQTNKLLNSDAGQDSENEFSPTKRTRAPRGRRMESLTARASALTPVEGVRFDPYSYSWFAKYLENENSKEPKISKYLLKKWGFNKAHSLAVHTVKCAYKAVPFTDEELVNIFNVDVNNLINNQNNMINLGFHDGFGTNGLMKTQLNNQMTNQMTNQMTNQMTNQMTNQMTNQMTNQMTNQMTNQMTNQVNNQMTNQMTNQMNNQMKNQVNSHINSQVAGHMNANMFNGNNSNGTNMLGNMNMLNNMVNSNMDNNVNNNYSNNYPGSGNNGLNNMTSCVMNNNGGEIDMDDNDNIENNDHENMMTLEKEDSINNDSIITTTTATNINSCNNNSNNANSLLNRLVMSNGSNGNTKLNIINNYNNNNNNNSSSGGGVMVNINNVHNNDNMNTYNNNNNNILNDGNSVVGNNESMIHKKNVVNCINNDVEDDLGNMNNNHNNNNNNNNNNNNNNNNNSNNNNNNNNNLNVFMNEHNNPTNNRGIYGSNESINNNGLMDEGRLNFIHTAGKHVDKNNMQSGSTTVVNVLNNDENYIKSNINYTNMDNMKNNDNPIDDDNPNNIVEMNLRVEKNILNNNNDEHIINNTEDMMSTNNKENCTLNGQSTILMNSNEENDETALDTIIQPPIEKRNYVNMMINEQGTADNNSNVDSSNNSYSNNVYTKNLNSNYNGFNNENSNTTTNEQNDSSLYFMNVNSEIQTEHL
UniProt Q8I531: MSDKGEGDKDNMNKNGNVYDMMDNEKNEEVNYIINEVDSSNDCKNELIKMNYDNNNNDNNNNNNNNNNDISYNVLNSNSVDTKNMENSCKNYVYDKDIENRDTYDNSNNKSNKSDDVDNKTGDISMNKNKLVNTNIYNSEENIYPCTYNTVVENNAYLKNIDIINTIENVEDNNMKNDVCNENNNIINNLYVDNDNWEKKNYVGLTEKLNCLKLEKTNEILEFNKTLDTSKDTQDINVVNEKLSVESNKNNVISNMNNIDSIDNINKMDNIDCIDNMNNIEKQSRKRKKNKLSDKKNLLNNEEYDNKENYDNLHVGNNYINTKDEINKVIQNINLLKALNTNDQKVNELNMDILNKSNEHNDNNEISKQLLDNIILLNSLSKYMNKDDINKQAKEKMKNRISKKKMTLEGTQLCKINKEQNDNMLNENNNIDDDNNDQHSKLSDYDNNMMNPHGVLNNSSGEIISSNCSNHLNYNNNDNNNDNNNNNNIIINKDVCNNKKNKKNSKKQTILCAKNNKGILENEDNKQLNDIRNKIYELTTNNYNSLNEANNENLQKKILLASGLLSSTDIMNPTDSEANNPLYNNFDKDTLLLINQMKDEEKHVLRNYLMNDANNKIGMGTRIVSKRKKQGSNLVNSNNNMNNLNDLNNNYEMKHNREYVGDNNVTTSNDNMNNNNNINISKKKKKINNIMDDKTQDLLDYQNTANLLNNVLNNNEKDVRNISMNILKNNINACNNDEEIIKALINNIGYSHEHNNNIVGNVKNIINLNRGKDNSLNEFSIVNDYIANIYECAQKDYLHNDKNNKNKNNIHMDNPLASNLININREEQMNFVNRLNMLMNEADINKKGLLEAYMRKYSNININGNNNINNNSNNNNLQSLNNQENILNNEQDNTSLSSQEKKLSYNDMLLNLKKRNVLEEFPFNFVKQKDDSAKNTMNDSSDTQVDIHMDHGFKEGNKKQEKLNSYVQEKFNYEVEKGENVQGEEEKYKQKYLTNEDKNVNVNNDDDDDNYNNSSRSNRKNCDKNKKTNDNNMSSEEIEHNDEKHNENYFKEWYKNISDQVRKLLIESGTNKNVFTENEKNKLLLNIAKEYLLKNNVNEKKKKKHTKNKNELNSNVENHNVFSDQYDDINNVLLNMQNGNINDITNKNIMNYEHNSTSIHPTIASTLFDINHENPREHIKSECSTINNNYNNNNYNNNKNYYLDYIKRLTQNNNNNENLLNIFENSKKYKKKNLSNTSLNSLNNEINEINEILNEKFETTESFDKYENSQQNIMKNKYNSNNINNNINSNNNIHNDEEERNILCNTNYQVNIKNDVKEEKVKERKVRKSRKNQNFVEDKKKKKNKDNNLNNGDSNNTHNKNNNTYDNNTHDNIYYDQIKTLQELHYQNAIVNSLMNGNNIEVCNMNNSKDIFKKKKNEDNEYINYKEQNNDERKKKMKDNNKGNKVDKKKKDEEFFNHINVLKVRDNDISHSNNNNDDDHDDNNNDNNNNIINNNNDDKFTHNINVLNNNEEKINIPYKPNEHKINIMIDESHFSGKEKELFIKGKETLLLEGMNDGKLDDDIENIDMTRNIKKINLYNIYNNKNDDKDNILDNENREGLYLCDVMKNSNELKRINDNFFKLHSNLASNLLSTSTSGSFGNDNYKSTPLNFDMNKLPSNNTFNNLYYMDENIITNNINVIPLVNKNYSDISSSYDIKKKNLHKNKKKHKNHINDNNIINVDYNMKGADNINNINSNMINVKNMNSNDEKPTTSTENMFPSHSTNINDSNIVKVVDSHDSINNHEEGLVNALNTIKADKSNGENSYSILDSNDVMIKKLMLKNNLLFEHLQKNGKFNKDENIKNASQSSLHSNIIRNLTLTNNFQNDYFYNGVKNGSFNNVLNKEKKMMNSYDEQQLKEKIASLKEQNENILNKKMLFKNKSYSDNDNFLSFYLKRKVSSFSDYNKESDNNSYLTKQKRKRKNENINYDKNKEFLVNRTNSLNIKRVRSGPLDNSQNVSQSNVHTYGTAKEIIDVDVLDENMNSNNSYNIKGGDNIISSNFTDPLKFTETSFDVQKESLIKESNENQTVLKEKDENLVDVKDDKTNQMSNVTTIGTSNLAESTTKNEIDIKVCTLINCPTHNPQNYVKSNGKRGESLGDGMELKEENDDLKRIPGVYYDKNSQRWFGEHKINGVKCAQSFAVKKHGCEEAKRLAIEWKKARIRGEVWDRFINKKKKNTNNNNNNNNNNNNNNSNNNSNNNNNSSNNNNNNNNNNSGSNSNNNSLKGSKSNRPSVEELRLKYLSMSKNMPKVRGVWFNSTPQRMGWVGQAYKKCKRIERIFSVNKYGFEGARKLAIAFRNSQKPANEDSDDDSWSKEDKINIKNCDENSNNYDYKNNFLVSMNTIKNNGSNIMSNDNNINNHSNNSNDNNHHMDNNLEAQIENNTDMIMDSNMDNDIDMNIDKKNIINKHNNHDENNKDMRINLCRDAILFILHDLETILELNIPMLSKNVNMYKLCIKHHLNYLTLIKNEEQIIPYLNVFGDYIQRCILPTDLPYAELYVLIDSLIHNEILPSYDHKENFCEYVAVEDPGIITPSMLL
UniProt Q8IIS4: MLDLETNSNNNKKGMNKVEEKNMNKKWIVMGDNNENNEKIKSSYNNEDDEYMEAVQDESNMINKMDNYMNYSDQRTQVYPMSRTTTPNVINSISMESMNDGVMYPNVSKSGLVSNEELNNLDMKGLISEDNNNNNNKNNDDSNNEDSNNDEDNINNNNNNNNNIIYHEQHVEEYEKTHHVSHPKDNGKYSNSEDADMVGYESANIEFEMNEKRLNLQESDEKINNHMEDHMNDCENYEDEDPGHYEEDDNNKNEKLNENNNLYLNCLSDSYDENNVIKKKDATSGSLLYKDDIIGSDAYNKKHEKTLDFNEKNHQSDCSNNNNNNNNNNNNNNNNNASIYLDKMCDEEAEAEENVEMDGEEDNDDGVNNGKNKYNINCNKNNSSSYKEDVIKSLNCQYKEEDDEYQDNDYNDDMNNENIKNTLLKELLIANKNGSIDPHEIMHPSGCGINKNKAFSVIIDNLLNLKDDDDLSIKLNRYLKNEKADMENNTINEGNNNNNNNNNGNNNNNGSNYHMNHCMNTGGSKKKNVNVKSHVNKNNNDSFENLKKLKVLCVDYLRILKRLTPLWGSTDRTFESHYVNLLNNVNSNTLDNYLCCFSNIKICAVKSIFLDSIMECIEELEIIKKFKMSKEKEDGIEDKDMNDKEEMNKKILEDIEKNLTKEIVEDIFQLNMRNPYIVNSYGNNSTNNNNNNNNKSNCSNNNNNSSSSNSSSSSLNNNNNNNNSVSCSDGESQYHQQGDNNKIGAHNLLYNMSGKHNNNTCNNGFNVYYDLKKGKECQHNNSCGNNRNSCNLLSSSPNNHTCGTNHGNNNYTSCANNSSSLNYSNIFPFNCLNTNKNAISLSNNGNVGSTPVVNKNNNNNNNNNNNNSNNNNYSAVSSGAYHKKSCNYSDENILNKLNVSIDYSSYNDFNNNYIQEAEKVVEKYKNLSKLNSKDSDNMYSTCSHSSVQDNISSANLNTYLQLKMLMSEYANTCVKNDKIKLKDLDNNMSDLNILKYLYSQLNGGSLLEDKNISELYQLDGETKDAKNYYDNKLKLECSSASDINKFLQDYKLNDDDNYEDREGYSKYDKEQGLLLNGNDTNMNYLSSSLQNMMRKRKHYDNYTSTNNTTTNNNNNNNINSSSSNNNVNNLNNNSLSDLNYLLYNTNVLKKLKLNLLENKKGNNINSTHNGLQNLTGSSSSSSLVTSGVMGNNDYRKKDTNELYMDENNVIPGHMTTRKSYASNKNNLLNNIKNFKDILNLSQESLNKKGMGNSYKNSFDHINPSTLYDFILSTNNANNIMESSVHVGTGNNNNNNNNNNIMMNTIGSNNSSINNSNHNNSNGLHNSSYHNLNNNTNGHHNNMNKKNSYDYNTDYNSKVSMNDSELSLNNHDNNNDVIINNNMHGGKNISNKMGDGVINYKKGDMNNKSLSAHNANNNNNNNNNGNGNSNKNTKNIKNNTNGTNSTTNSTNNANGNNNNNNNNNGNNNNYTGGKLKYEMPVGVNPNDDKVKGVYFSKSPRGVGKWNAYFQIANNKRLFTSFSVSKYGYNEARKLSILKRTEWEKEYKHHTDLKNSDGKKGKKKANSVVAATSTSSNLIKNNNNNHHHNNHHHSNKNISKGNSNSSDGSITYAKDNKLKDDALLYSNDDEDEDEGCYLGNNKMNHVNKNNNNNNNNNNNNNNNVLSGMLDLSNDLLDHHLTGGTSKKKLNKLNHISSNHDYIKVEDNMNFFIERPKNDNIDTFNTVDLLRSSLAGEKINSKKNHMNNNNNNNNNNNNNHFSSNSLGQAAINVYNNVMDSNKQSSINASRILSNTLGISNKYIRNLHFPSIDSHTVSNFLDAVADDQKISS

Legend:
[1] = target: PfMORC^GFP (Plasmodium falciparum microrchidia protein MORC, GFP-tagged) (Plasmodium falciparum (3D7 background)) (UniProt Q8IKF6); assay: affinity purification with mass spectrometry; PfMORC^GFP captured from trophozoite (32 hpi) lysate in modified RIPA buffer (50 mM Tris pH 7.5, 150 mM NaCl, 0.5% sodium deoxycholate, 1% Nonidet P-40) on anti-GFP-Trap-A beads overnight; eluate resolved by SDS-PAGE, label-free LC-MS/MS, three biological replicates; wild-type 3D7 as negative control; cutoff fold change 1.5x GFP/3D7
[2] = target: PfMORC^GFP (Plasmodium falciparum microrchidia protein MORC, GFP-tagged) (Plasmodium falciparum (3D7 background)) (UniProt Q8IKF6); assay: as above; remark: listed apart in the source

Row | binding [1] | binding [2] | Molecule
1 | binds | – | AP2 domain transcription factor AP2-I (from UniProt Q8IJW6 1-1597)
2 | binds | – | AP2 domain transcription factor PF3D7_1239200 (from UniProt Q8I531 1-2577)
3 | – | binds | EELM2 domain-containing protein PfEELM2 (protein, UniProt Q8I3R2 1-668) MNDYNDKEVYISEEEEEEEQEQEQEQEHEQEQEEEQEEDYEQEQEEEQEEEQVHGIEKNNNEEKSDKRNGHYLEGNHDHDVEELHDDDDDVNHTYVYDNEKYVHKVEDNHLTDNDMIEEDEENDQKRDEDLNEEEEYEHDSNHNNIDIDESNKEESEAEQNLKKEDYDNVDEDKKDNLQKNVAYANTIIKGGRNLRNLNKSSTSFDKTKKEQNNNMNGGGTNFIKTLSDENNLQNNVPHGRRKRKVSKDLNLNNEYVYGTNLNFKHARNVNDDIDEHEESENNHDQNNNEEINEHNQNDDNPIHNDNTNANNDDDDDNNIINNNENVVKTNEKILNGKQTNLRGSHLKLKTNRTKKNKKLSNKLNRNIAKNVNKNNNGRYGNVGRAQASTTQGNEKKVHGTNDNAEYTTHNRGRNSTTTNFTNRHSRVTFNNNNEGTYYAGHNNNTSTSHGNRHNDPHEEAEPKKGKKKRVTEEGSKESGKINVGDSYQVSNLPNFFLCRSELMYKNYDTQENTNDQMCLSCSGLPCHCKVGEATLVYSPIMLERVRERCLKNRGYHKCVKNEIELSAYVQECAKSWKSNIDEWVPFSPEYAYKLLHYANYDPHKAISIMKSSEFSFRKIMDPPTRKYQNKWKPKDKREHISKNPFPSPLTIRTYLSKRHHNSGYHLR
4 | – | binds | DNA helicase 60, DH60 (protein, UniProt Q8I5E7 1-742) MRRNLLKLTSINCKKNDYVSLSNNFFLIKNRSYKYITVRNKIGRNVFNEKDNCAILNRGQTHVVGIKKNICTENKVKQQDGEFYMNQRVPDDMDNDMDNNVDNDMDNNVDNHVDNHVDNHVDNHVDNHMDNHINNHTHKNVHDDTSYDNNSFDRYQRKRDEIGENGFVQNRRYENYEKRKQSKTNYSYDNDYNQGSRNKRNMSYPDRYEELGSHLKDIEWDNVKYKMERQNLYNNNYNKCNDQNNNQNSNDNLNNEQTNCLSKEDIQNELKKNNIYINKDGIIHNIINKFSDVCFHESILNYLNNKFSEPTAIQKITWPIALSGKDLIGVAETGSGKTLAFVLPCFMHILKHKEIIQNNNNNKQTNQNNNLQQEQEGKTNNHHIINNYNENNDNNENNHNNNNNNNNNNNNSYDYDYDINSSERASDTYGLILLPTRELCLQVLDEIKSFEKNLPIKSVAVYGGVPKYYQINNLKKGADIIVATPGRLLDFLENGNINLLKCIYVVIDEADRLLDMGFEKQLRKIMTQVNKNKQLLFLTATWPEQVRKLAYDFCSYDPVKIQIGKNELTANKNIEQNVIISSSIDMKKKLLDWLKENYENNKILIFCDTKRNCDNLCKELRYHQYNALSIHGDKQQRERDRILNNYKTDRCNILVATDVASRGLDIKNISVVINYDIPNTIEDYIHRIGRTGRAGKKGKSILFFSYDYYMPQKLKFAKELIKLLNKTNQTVPPQLKEIAYSR

The next lines start with the molecule.

Row | Molecule | binding [1] | binding [2]
5 | AP2 domain transcription factor (ApiAP2) PF3D7_0420300 (from UniProt Q8I1N6) | binds | –
6 | AP2 domain transcription factor AP2-G5 (from UniProt Q8IHX2 1-2653) | binds | –
7 | AP2 domain transcription factor PF3D7_0613800 (from UniProt C6KSY0 1-4109) | binds | –
8 | AP2 domain transcription factor PF3D7_1107800 (from UniProt Q8IIS4 1-1828) | binds | –
9 | SNF2 chromatin-remodeling ATPase ISWI (from UniProt C6KT82 1-2719) | binds | –
10 | SNF2 helicase, putative or Chromodomain-helicase-DNA-binding protein 1 homolog, CHD1 (from UniProt Q8IJG6 1-3328) | binds | –
11 | ATP-dependent RNA helicase DBP5 (protein, UniProt Q8IKP1 1-741) METQEAPNIETKDEKQNGDADIIVTNKDEQSSKKKEENSNDDNKPGDVKEPADDNKPSDKKQPDDDNKYSDKKQPDDDNKSSDKKQPADDNKDNAGSDNVMNMFLNYLQKNKDDPAILQTMMSMMSGQNKNNLSASDLLSFTNSLNKKGEEKGEKNKEEEKKENEMPSEDLKNPSELITKEEKNEDNISTSDTQNVSNNIITKSESDTKQNNDSSSNNNNNNNYSVSEKVSGEENTNNNNNEEVVKKKHSVLVEDNDDYEIEETVEPKEPVEEEAISIIENININNKEKEKKGNDLFSPTSSSIENNNNDNNKESSDFKLYHSKNTWEELKIDNELIQILTYLKFLGPSKIQAYALPIILSSNKNLIAQSQNGSGKTLTFVIAMLCKINRTLSSLQAVCICPTRELSQQNYDVVCNFTKYLNVKVFLAVPLCERYNKSGGYQIYVGTPGKTLDFLKRKFIDTKNIKLFVLDEADDLIDIKNNMSSQVETIKRFLPRSCQILLFSATYNDSVRKFADQFAPKATKISVRQEDLTLKCVKQYYLITENDEQKYYYLSELYCSMTISQCVIFVNSKKSAYNLYNFMTENSHNVTLICADSIISRFTKNQIQKANVLGMDPKTRDTLMADFKKGISKVLICTDLLSRGIDVPSISLVINFDLPYIYQGRIGDTLNNTSNQRVNMETYIHRIGRTGRFGTKGMAINFISKNQMSHIKQIEEYYKCSIADLEFDSELMITSLTKLKN | – | binds
12 | AP2 domain transcription factor AP2-O5 (protein, UniProt Q8IKY0 1-715) MINYKDNKNSIEDNKENDSHLVKNTSYEKASEIVESDMYESNEDSNTKNKGVWYNARTKCWLACVKGSGRHLRVFSVKKYGYKKAKMLAIECKNSVFYNEQNEENNNDIHMKSNTSNNNNNNNMNSSSNSSTGNDNGYKLNNKKGNSEYNYNNMKEMNNKTNVNNYDDDIKDIDYKKRRNKLNEENEEVDIYNGRKNTDNGNINSSKNNAVILKKEKLKTNGNIINDITNTGRRYNTRRGSTLSSHEINKNERNNKNENNNIYDRYNYKNYAYNDQTKSNNNNNNDNNNNNNNNEDDNVHNEKIAIAHKNNHVQNNNFYNNNNNNNNNNNNNNNNNNVLNTIHNNVYNNLYHNDPNYDDRDNDVNQDHYNEHNNNNNNNYFYNTYDNHTYNTRNTTNISNYNNYENKKMNSKTLLQGQNKNISTTYGAPNKRYIEHLEDVCEYDNGNKKKKRKEQYAYLIRNDDESSNMNNNNNMKNFNNTNINAYQQNNYNNNYCTNYTTSYQRNVHSSNYNNTGYNNNNNNNNFNNNNNFNNNNNFNNNNNFNNNNNFNNNLAFLNSHCILTDKDFQIDSPDQTFDDYYYMKAHGYDDSEYSTRGKNKYNENEYNFIFSNEYYSDSCQPNIDEYKTNFIDLTREALSLILQDLKNNVIPKIPVGIEKRERYKNSLRLCLKSARNTQHMNELEPYLELFSECIKNSKLPSHMSLKDQLFYLDKL | – | binds
